Measurements from publication PMC9198586.
These are yes or no findings as the source states them, for the method shown. In cells and extracts the contact can be indirect.

Amino acid sequences for entries named in this document (tags omitted).
UniProt P02340: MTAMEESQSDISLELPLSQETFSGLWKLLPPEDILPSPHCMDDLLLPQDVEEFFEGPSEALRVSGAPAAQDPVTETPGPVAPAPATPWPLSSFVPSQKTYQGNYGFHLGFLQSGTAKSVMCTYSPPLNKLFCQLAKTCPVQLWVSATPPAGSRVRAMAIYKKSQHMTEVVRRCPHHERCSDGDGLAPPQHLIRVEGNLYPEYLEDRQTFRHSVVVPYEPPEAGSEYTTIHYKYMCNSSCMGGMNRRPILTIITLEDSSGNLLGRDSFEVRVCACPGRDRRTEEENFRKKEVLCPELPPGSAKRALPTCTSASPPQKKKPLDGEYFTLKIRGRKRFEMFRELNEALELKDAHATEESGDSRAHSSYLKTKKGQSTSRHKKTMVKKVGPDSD
UniProt P23804: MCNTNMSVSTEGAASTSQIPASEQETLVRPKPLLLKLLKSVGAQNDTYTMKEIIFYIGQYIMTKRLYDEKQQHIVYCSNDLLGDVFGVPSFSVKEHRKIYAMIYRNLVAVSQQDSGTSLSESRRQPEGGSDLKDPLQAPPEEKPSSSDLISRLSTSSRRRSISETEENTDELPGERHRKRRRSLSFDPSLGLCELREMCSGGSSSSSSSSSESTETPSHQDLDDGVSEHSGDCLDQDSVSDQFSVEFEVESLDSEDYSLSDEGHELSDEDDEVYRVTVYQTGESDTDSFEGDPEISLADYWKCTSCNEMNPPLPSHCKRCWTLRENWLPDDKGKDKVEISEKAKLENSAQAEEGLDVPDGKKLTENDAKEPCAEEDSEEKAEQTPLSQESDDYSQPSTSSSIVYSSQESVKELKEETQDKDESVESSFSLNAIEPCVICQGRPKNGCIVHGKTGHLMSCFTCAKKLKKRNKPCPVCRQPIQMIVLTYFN

Molecular target: p53 (mouse, wild type) (mouse (endogenous in TA3-Sth)) (UniProt P02340)
Test: co-IP; TA3-Sth mouse tumor cells treated with nutlin; MDM2 in precipitates detected by 4B2 antibody

Question: Which binding does the source give for “MDM2 (mouse) (from UniProt P23804 1-489)” here?
Answer: no binding (condition: cells treated with nutlin)
